Experimental data: PubChem BioAssay AID1508588 (Peter MacCallum Cancer Centre, 2020)
The deposit covers about 18,000 reagents; this is an unselected part. 790 of them (4.4%) were called active. 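Calls rest on a combination of fold-change classes in drug and vehicle arms, not all shown here.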

Purpose: 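Knock-downs boosting vemurafenib effects on melanoma cell growth or lactate release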 (primary screen)
Cell system: human WM266.4 melanoma cells (BRAF V600 mutant)
Reagent: siRNA pool against human genes, 40 nM
Duration: 96 h from transfection to read-out
Conditions: vemurafenib 300 nM (about IC25), added 48 h after transfection, for 48 h; comparison arm got DMSO vehicle only
Measurement: 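Ratios to non-targeting siRNA for cell gain, counted as DAPI nuclei after minus before drug and averaged over two replicates, and for absorbance-read medium lactate per cell; both binned into fold-change classes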
Reading the numbers: cell gain with vemurafenib: higher = more cell gain than with non-targeting siRNA; lactate per cell with vemurafenib: higher = more lactate made per cell
Rule for the call: 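a knock-down counts as enhancing when its fold-change classes with vehicle and with vemurafenib, taken together, show a stronger drug effect on cell gain or lactate per cell; exact class pairs not stated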
Calls: active = enhances vemurafenib effect; inactive = no enhancement seen

no.	target gene	cell gain with vemurafenib	lactate per cell with vemurafenib	outcome
1	WNT8A (GeneID 7478)	0.33	0.46	active
2	ZC3HAV1 (GeneID 56829)	0.71	0.72	inactive
3	EFCAB3 (GeneID 146779)	1.23	0.58	inactive
4	RPL23A (GeneID 6147)	-0.08	1.27	inactive
5	SUCLG2 (GeneID 8801)	0.28	1.58	inactive
6	STK24 (GeneID 8428)	0.47	1.84	inactive
7	ANKRD29 (GeneID 147463)	0.75	1.03	inactive
8	DYNLRB2 (GeneID 83657)	0.26	0.68	inactive
9	ROS1 (GeneID 6098)	0.52	0.73	inactive
10	RNF19A (GeneID 25897)	0.41	0.94	inactive
11	SLAMF6 (GeneID 114836)	0.39	1.17	inactive
12	OR13C5 (GeneID 138799)	0.57	0.33	inactive
13	PREX2 (GeneID 80243)	0.67	1.24	inactive
14	MFAP3L (GeneID 9848)	0.34	0.58	inactive
15	STAU1 (GeneID 6780)	0.41	0.88	inactive
16	TRPC7 (GeneID 57113)	0.36	0.78	inactive
17	MYT1 (GeneID 4661)	0.48	0.62	inactive
18	AGFG1 (GeneID 3267)	0.18	0.08	active
19	SCRG1 (GeneID 11341)	0.29	2.29	inactive
20	TMED3 (GeneID 23423)	0.07	1.13	inactive
21	TMEM140 (GeneID 55281)	0.73	0.78	inactive
22	PJA1 (GeneID 64219)	1.13	0.92	inactive
23	PLPPR2 (GeneID 64748)	0.11	1.74	inactive
24	TFB1M (GeneID 51106)	0.52	1.68	inactive
25	KAT8 (GeneID 84148)	0.35	0.97	inactive
26	TRIM69 (GeneID 140691)	0.35	1.7	inactive
27	EIF3D (GeneID 8664)	0.37	0.82	inactive
28	AKAP7 (GeneID 9465)	0.39	1.45	inactive
29	DNAH3 (GeneID 55567)	0.21	2.21	inactive
30	SLC35F5 (GeneID 80255)	0.73	0.76	inactive
31	SSBP4 (GeneID 170463)	0.28	0.64	inactive
32	RTRAF (GeneID 51637)	0.41	1.14	inactive
33	CCDC9 (GeneID 26093)	0.31	0.76	inactive
34	LMO7 (GeneID 4008)	1.06	0.82	inactive
35	EN2 (GeneID 2020)	0.6	1.73	inactive
36	GOLT1A (GeneID 127845)	0.74	1.15	inactive
37	TRPC3 (GeneID 7222)	0.45	0.56	inactive
38	MYO6 (GeneID 4646)	0.99	0.51	inactive
39	ZNF706 (GeneID 51123)	0.44	0.96	inactive
40	SLC9A6 (GeneID 10479)	0.92	0.56	inactive
41	OR8D2 (GeneID 283160)	0.27	0.55	inactive
42	AOC3 (GeneID 8639)	0.46	0.73	inactive
43	IL12B (GeneID 3593)	0.91	0.7	inactive
44	PTBP3 (GeneID 9991)	0.7	0.79	inactive
45	SNHG32 (GeneID 50854)	0.47	0.59	inactive
46	ATP11A (GeneID 23250)	1.08	0.71	inactive
47	KCTD13 (GeneID 253980)	0.63	0.49	active
48	RBM12 (GeneID 10137)	0.12	1.34	inactive
49	TNFRSF9 (GeneID 3604)	0.45	1.65	inactive
50	STAMBP (GeneID 10617)	0.66	0.89	inactive
51	DZIP1 (GeneID 22873)	0.94	0.97	inactive
52	ARHGEF10 (GeneID 9639)	0.56	0.46	inactive
53	CCL1 (GeneID 6346)	0.61	0.37	inactive
54	ARRDC5 (GeneID 645432)	1.11	0.72	inactive
55	LAMP1 (GeneID 3916)	0.65	0.76	inactive
56	PRKG1 (GeneID 5592)	0.62	1.18	inactive
57	LRG1 (GeneID 116844)	0.66	0.32	active
58	RFPL4B (GeneID 442247)	1.19	0.72	inactive
59	FAM20C (GeneID 56975)	0.91	0.76	inactive
60	ENOX2 (GeneID 10495)	0.48	1.23	inactive
61	C11orf87 (GeneID 399947)	0.32	0.72	inactive
62	CCL16 (GeneID 6360)	1.12	0.18	active
63	S100PBP (GeneID 64766)	0.51	1.68	inactive
64	L1CAM (GeneID 3897)	0.4	2.6	inactive
65	TMEM65 (GeneID 157378)	0.76	1.04	inactive
66	PNLIPRP1 (GeneID 5407)	0.81	0.98	inactive
67	OAS2 (GeneID 4939)	0.61	1	inactive
68	CCDC158 (GeneID 339965)	0.22	0.3	inactive
69	CCT8 (GeneID 10694)	0.15	2.38	inactive
70	CST5 (GeneID 1473)	0.46	0.77	inactive
71	IGSF3 (GeneID 3321)	0.72	1.15	inactive
72	SRRM1 (GeneID 10250)	0.71	0.99	inactive
73	SKP1 (GeneID 6500)	0.41	1.66	inactive
74	ZNF507 (GeneID 22847)	1.36	0.1	inactive
75	MARK3 (GeneID 4140)	0.42	0.96	inactive
76	C11orf16 (GeneID 56673)	0.45	0.45	inactive
77	ASTN1 (GeneID 460)	1.39	0.47	inactive
78	ACADVL (GeneID 37)	0.93	0.82	inactive
79	APOA4 (GeneID 337)	0.92	0.76	inactive
80	C6orf136 (GeneID 221545)	0.78	1.25	inactive
81	RAB37 (GeneID 326624)	0.46	1.14	inactive
82	PRM2 (GeneID 5620)	0.69	0.78	inactive
83	AMTN (GeneID 401138)	0.41	0.56	inactive
84	LY75 (GeneID 4065)	0.56	1.91	inactive
85	PHETA1 (GeneID 144717)	0.45	0.26	inactive
86	STX11 (GeneID 8676)	0.81	0.9	inactive
87	USP4 (GeneID 7375)	0.51	0.88	inactive
88	MYOG (GeneID 4656)	0.98	1.24	inactive
89	CACNG3 (GeneID 10368)	0.93	0.71	inactive
90	SPATA17 (GeneID 128153)	0.48	0.86	inactive
91	P2RX2 (GeneID 22953)	0.27	0.3	inactive
92	LRFN2 (GeneID 57497)	0.11	0.31	active
93	MS4A6A (GeneID 64231)	0.4	0.94	inactive
94	SLC51A (GeneID 200931)	0.68	1.15	inactive
95	PRKAB2 (GeneID 5565)	0.19	1.04	inactive
96	CNTN2 (GeneID 6900)	0.5	1.02	inactive
97	ITIH3 (GeneID 3699)	0.62	0.49	active
98	POLG (GeneID 5428)	0.52	1.31	inactive
99	B4GAT1 (GeneID 11041)	0.59	1.2	inactive
100	RAD51AP1 (GeneID 10635)	0.78	0.21	inactive
101	TUT4 (GeneID 23318)	0.56	1.46	inactive
102	ADGRF4 (GeneID 221393)	0.88	1.9	inactive
103	SNAPC5 (GeneID 10302)	0.33	2.08	inactive
104	INTS13 (GeneID 55726)	0.46	1.44	inactive
105	GBA3 (GeneID 57733)	0.55	0.32	inactive
106	ZNF19 (GeneID 7567)	0.47	2.8	inactive
107	STH (GeneID 246744)	0.56	1.44	inactive

Records listed so far whose gene name starts with R or r (8):
target gene	cell gain with vemurafenib	lactate per cell with vemurafenib	outcome
RPL23A (GeneID 6147)	-0.08	1.27	inactive
ROS1 (GeneID 6098)	0.52	0.73	inactive
RNF19A (GeneID 25897)	0.41	0.94	inactive
RTRAF (GeneID 51637)	0.41	1.14	inactive
RBM12 (GeneID 10137)	0.12	1.34	inactive
RFPL4B (GeneID 442247)	1.19	0.72	inactive
RAB37 (GeneID 326624)	0.46	1.14	inactive
RAD51AP1 (GeneID 10635)	0.78	0.21	inactive
